In the test the target is huCLL1-Q244-Avi-Tev-His (human) (UniProt Q5QGZ9). As to the kind of experiment: BLI. For orientation: Biolayer interferometry detects binding as a change in optical thickness at a sensor tip.

Amino acid sequences for entries named in this document (tags omitted). A change or cut given only in a name is not applied to a line headed by its entry. Chains listed by the source or under a name are the forms on record and can include a tag or linker.
huCLL1-Q244-Avi-Tev-His (Q5QGZ9, form named): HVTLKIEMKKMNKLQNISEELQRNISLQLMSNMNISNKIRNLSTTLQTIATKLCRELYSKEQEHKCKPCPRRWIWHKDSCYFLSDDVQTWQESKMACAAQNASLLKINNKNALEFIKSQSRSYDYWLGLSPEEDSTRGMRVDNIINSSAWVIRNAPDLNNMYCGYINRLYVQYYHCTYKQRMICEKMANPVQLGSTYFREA

No constants are given. Whether binding was seen depends on the method and setting. Some binding calls cover weakened binding; strength is not graded here.

B1: Polypeptide No. 87 (scFv, V domains shown)
VH: QVQLVQSGAEVKKPGASVKVSCKASGYSFTNYYIHWVRQAPGQGLEWMGWMNPYTGQTGYAQKFQGRVTMTRDTSTSTVYMELSSLRSEDTAVYYCTTDEETMDFHLWGRGTLVTVSS
VL: DIQMTQSPSSLSASVGDRVTITCZASQSISSYLNWYQQKPGKAPKLLIYDASNLETGVPSRFSGSGSGTDFTLTISSLQPEDFATYYCQQANTFPITFGQGTRLEIKR
As to B1, the binding entry is given as “binds”.

Values taken from patent US20240101668A1.
